PubChem BioAssay AID504774 – Drosophila RNAi Screening Center | 2011
The screen tested about 23,000 reagents; shown is an unselected part of those that have a named target and a result. 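Values are quantile-normalised luminescence on an arbitrary scale; higher means more cells surviving MMS.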 The numbers tell different reagents against one gene apart. Names joined by + are all predicted targets of the reagent. Not all columns of the deposit are shown.

Aim: 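Fly genes whose loss alters survival after alkylation damage to DNA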 (primary screen)
Cell system: Drosophila Kc167 cells
Reagent: long dsRNA against Drosophila genes, about 0.25 µg dsRNA per well
Timing: about 6 days: 3 days knock-down, then 3 days with or without MMS
Challenge: methyl methanesulphonate 0.004% (w/v) for 3 days after knock-down
Measured: 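Viability in wells given MMS, read as ATP luminescence, normalised by quantiles plate by plate and averaged across replicates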
Scale: mean viability with MMS: higher = more surviving cells after MMS

gene knocked down,reagent no.,mean viability with MMS
Rae1,1,3.25e6
Bug22,1,3.56e6
Hml,1,3.33e6
ND-B18,1,3.53e6
pinta,1,3.49e6
CG17633,1,3.55e6
Hph,1,3.57e6
Hph,2,3.39e6
Ttc30,1,3.63e6
Ttc30,2,3.76e6
CG6168,1,3.55e6
SelT,1,3.59e6
CG42306 + Gint3,1,3.34e6
CG15599,1,3.57e6
Stt3B,1,3.50e6
RpS9,1,2.99e6
CG33337,1,3.63e6
Parp16,1,3.60e6
CG15199,1,3.48e6
Gr21a,1,3.57e6
nyo,1,3.50e6
nyo,2,3.54e6
sordd2 + sordd1,1,3.50e6
CAH8,1,3.44e6
CG14891,1,3.62e6
dgt1,1,3.69e6
Ptip,1,3.41e6
Ptip,2,3.21e6

2 neighbouring reagents already listed:
gene knocked down,reagent no.,mean viability with MMS
Ptip,1,3.41e6
Ptip,2,3.21e6
